Results published in article PMC4148444, “P. aeruginosa SGNH Hydrolase-Like Proteins AlgJ and AlgX Have Similar Topology but Separate and Distinct Roles in Alginate Acetylation” (PLoS Pathogens, 2014).
These are yes or no findings as the source states them, for the method shown.

Molecular target: Selenomethionine-incorporated Pseudomonas putida AlgJ residues 75-370 (SeMet PpAlgJ75-370), crystallography construct (Pseudomonas putida KT2440) (UniProt Q88ND3)
Assay: crystal structure; SeMet protein, space group C2, two molecules in the asymmetric unit, 1.83 Å; both purified

binding: no binding
B1: Selenomethionine-incorporated Pseudomonas putida AlgJ residues 75-370 (SeMet PpAlgJ75-370), crystallography construct (domain or fragment, UniProt Q88ND3 75-370)
chain: NEGRPGVVLGRDQWLFSDEEFKPTAGAEQLMQENLALIRGVRDTLQQHGSQLVLAIVPAKARVYTEYLGKERPASLHDDLYNQFHAQARQANVFAPDLMAPMEQAKARGQVFLRTDTHWTPMGAEVAAQALAEAVSRQSLLNGDPQAFITEAGNTAPYKGDLTNFLPLDPLFSNLLPAPDNLQKRTTRPVDAEGDAGDALFADKQIPVALVGTSYSANPHWNFLGALQQALRSDVANYAEDGHGPLLPMLKYLQSDAFKNAAPQVVVWEFPERYLPMKNDLSSFDPQWIAQLKNSR
modifications: selenomethionine in place of methionine
